Test results published in PubChem BioAssay AID2417 (National Center for Advancing Translational Sciences (NCATS), 2010).
Among all 140,000 compounds or so, about 4,300 (3.1%) were called active. Inconclusive means that the source gave no clear call. Such entries were picked first, then a sample of the others.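 Rule for the calls: active = readout at or below -70, meaning at least 70% loss of cells showing the perinucleolar compartment, a nuclear body marking cancer cells; inconclusive = readout between -30 and a set limit; inactive = the rest.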

assay: High Content Assay for Compounds that inhibit the Assembly of the Perinucleolar Compartment; settings: PC3M PTB-GFP, PNC prevalence imaging, 16 h; at 10 µM; active compounds read low;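 note: plate controls were DMSO wells for no effect and camptothecin positive control wells for full effect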
Method in brief: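 PC3M cells stably expressing PTB-GFP, 750–1000 cells/well, treated 16 h at 37 °C with compound (23 nl of library stock), in duplicate. After paraformaldehyde fixation and Hoechst stain, imaged at 20x; PNC prevalence scored by image analysis.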

| Compound | activity change (PNC), negative = inhibition |
| --- | --- |
| CNC(=O)c1csc(-c2ccc(C)cc2)n1 | inconclusive: -37.2% |
| O=C(Nc1nc(=O)n(C(=O)C2CC2)s1)c1ccccc1 | inactive: 20.3% |
| O=C(c1cnn2c(C(F)(F)F)cc(-c3ccco3)nc12)N1CCc2ccccc2C1 | inconclusive: -41% |
| CC(C)OC(=O)C1C(=O)CC(C)(O)C(C(=O)OC(C)C)C1c1cccnc1 (stereo unspecified) | inconclusive: -31% |
| CCC(C)[C@@H](C(=O)NCC1CCC(C(=O)O)CC1)n1nnc2ccccc2c1=O (stereo partly specified) | inactive: -5.12% |
| CCCCCCNC(=O)Nc1ccccc1 | inactive: 16.7% |
| CCOc1ccc(NC(=O)C2CCN(C(=O)NCc3ccccc3)CC2)cc1 | inconclusive: -38.2% |
| Cc1nc2ccc(Cl)cc2nc(C)/c1=N\O | inactive: 10.2% |
| COc1ccc(OC)c(/C=C/C(=O)OCC(=O)Nc2cccc(Oc3ccccc3)c2)c1 | inconclusive: -48.5% |
| N#C/C(=N\Nc1cccc(Cl)c1)C(=O)c1ccccc1 | inconclusive: -52.4% |
| COc1cccc(-c2nc(-c3ccccn3)no2)c1OC | active: -84.4% |
| O=C(Nc1ccc2nc(-c3ccco3)c(-c3ccco3)nc2c1)NC1CC1 | inactive: 15.2% |
| COc1ccc(N(CC(=O)Nc2ccc(S(=O)(=O)N3CCOCC3)cc2)S(=O)(=O)c2ccccc2)cc1 | inconclusive: -31.3% |
| Cn1c(=O)oc2cc(S(=O)(=O)N3CCCC(C(=O)NCc4ccc5c(c4)OCO5)C3)ccc21 (stereo unspecified) | inconclusive: -32.9% |
| Cc1ccc(N(CC(O)Cn2c3ccccc3c3ccccc32)S(C)(=O)=O)cc1 (stereo unspecified) | inconclusive: -76.2% |
| Cc1ccc(C(CC(=O)N2CCCC2)c2ccccc2)c(O)c1C (stereo unspecified) | inactive: 15.1% |
| Brc1ccc(C2=Nn3c(nnc3-c3n[nH]c4c3CCC4)SC2)cc1 | inconclusive: -58.7% |
| Cc1[nH]nc(-c2ccc(O)cc2O)c1Oc1ccccc1 | inconclusive: -37.8% |
| CC1=NN(c2nc(-c3ccc(C)cc3)cs2)C(=O)C1N=Nc1cccc(C)c1 (stereo unspecified) | inconclusive: -62.8% |
| O=C(c1cnsn1)N1CCN(c2ccccc2)CC1 | inconclusive: -77.2% |
| CCC(=O)Nc1ccc(C(=O)CSc2nc3ccccc3cc2CC)cc1 | inconclusive: -43.9% |
| CC(/C=C1\SC(=S)N(CCCC(=O)Nc2ccc(C(=O)O)cc2)C1=O)=C\c1ccccc1 | inactive: -6.64% |
| CCC1(O)c2ccccc2-c2ncccc21 (stereo unspecified) | inactive: -3.71% |

Of the compounds above, these have a COOH group.

| Compound | activity change (PNC), negative = inhibition |
| --- | --- |
| CCC(C)[C@@H](C(=O)NCC1CCC(C(=O)O)CC1)n1nnc2ccccc2c1=O (stereo partly specified) | inactive: -5.12% |
| CC(/C=C1\SC(=S)N(CCCC(=O)Nc2ccc(C(=O)O)cc2)C1=O)=C\c1ccccc1 | inactive: -6.64% |

Continued.

| Compound | activity change (PNC), negative = inhibition |
| --- | --- |
| COc1cccc(-c2nc3sc4c(c3c(=O)[nH]2)CCCCC4)c1 | inactive: -19.9% |
| COCCN(C(=O)Cn1nnc2ccccc21)C(C(=O)NC1CCCC1)c1ccc(OC)cc1OC (stereo unspecified) | active: -87.8% |
| O=C(O)C1CC(c2ccccc2)=NO1 (stereo unspecified) | inconclusive: -36.4% |
| Nn1c(SCC(=O)NC2CCCC2)nnc1-c1ccccc1F | inconclusive: -73.4% |
| O=C(C1=C(O)C(=O)N(Cc2ccccc2)C1c1ccncc1)c1ccco1 (stereo unspecified) | inactive: 34.4% |
| CCNc1nc(NCC)n2c(SCC(=O)N3CC4(C)CC3CC(C)(C)C4)nnc2n1 (stereo unspecified) | inconclusive: -39.4% |
| Cc1cc(S(=O)(=O)Nc2ccccc2C(=O)O)ccc1Cl | active: -117% |
| O=C(c1ccc([N+](=O)[O-])cc1)N(Cc1ccc(Cl)cc1Cl)N1C(=O)CCCC1=O | inconclusive: -63.4% |
| CCOc1ccc(-c2csc(/C(C#N)=C\c3ccc(O)c([N+](=O)[O-])c3)n2)cc1 | inconclusive: -63.5% |
| O=C(CN(Cc1ccccc1)C(=O)CCC(=O)Nc1ccccn1)NCc1ccco1 | inconclusive: -38.8% |
| CCN1CCCC1CNC(=O)c1cc(OC)c(OC)c(OC)c1 (stereo unspecified) | inconclusive: -68.4% |
| CCCSC(=O)N(CC)CC(=O)Nc1c(CC)cccc1CC | inconclusive: -47.5% |
| Cc1cc2c(nn1)CCC/C2=N\O | inconclusive: -38.1% |
| CC(C)CNS(=O)(=O)c1ccc(CCC(=O)Nc2ccc3c(c2)OCO3)cc1 | inconclusive: -48.3% |
| CC(C)C1Nc2ccc(S(N)(=O)=O)cc2C2C=CCC21 (stereo unspecified) | inconclusive: -58.1% |
| Cc1cc(NC(=O)CSc2nnnn2C)n(-c2ccccc2)n1 | inactive: -1.51% |
| Cc1cc(C)c2oc(=O)cc(CN3CCOCC3)c2c1 | inconclusive: -70.5% |
| COc1ccc(/C=N/NC(=S)Nc2cc(S(=O)(=O)N3CCOCC3)ccc2N2CCOCC2)cc1O | inconclusive: -45.2% |
| CCOP(=O)(OCC)C(Nc1ccccc1)c1cc(OC)ccc1OC (stereo unspecified) | inconclusive: -64.7% |
| CNC(=S)N1CCN(c2cccc(OC)c2)CC1 | inactive: 49% |
| O=C(COc1ccc(S(=O)(=O)NC2CCCCC2)cc1Cl)N1CCN(c2ccccc2)CC1 | inactive: -23.5% |
| Cc1onc(-c2c(Cl)cccc2Cl)c1C(=O)NC(C)(C)CO | inactive: -0.455% |
| CCSc1nnc(N2C(=O)CC(c3ccsc3)C3=C2CC(C)(C)CC3=O)s1 (stereo unspecified) | inconclusive: -59.3% |
